Where a chain is given by its changes, count along the chain named. A weaker result is weaker than the reference pair of the same experiment. For some of these results: Tags and fusion partners may be left off the protein sequences shown.
Assays:
Test in all cases: SPR
Details in all cases: SPR: HBS-EP running buffer, 25 °C, BIAcoreX, nonspecific 30-mer DNA in the reference cell; recombinant protein; residues 2-222; protein details: N-terminal MBP (pMalc2); label: 3' biotin on forward strand
[1] = target: T1, AmtR-MBP S55A (Corynebacterium glutamicum ATCC13032) (UniProt H7C699)
T1 sequence (looked up): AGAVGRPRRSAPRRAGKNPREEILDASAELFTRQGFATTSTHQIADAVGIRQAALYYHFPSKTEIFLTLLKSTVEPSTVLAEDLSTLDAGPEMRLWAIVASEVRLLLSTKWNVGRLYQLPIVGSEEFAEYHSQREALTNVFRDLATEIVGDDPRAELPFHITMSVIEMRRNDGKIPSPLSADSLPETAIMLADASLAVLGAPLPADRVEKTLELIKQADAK

[2] = target: T2, AmtR-MBP T42A (Corynebacterium glutamicum ATCC13032) (UniProt H7C699)
T2 sequence (looked up): T1 sequence (looked up) with T41A, A54S

[3] = target: AmtR-MBP Y57A (Corynebacterium glutamicum ATCC13032) (UniProt H7C699)
[4] = target: T3, AmtR-MBP Y58A (Corynebacterium glutamicum ATCC13032) (UniProt H7C699)
T3 sequence (looked up): T1 sequence (looked up) with A54S, Y57A

Measured: binding result

TAAATTACCTGTTAAACTATAGAAAATATC (double strand) [amtBp SPR 30-mer]
binds more weakly: all assays above

Reference: article PMC2723105, “DNA binding by Corynebacterium glutamicum TetR-type transcription regulator AmtR”
